Assay results from paper PMC9151573.
Results are given in words; binding and its absence hold for the method and conditions named. In cells and extracts the contact can be indirect. Some entries that bind do so weakly or less than the wild type. Sequences can lack the tags named with a protein.

How the values were obtained:
[1] = molecular target: T1, UGP2-FLAG (human) (UniProt Q16851); test: co-IP; HA-p53 and UGP2-FLAG overexpressed in HepG2 p53KO cells, 24 h starvation medium, precipitated with FLAG beads; Co-IP buffer 25 mM Tris-HCl, 150 mM NaCl, 1 mM EDTA, 1% IGEPAL, 5% glycerol, pH 7.4
T1 sequence: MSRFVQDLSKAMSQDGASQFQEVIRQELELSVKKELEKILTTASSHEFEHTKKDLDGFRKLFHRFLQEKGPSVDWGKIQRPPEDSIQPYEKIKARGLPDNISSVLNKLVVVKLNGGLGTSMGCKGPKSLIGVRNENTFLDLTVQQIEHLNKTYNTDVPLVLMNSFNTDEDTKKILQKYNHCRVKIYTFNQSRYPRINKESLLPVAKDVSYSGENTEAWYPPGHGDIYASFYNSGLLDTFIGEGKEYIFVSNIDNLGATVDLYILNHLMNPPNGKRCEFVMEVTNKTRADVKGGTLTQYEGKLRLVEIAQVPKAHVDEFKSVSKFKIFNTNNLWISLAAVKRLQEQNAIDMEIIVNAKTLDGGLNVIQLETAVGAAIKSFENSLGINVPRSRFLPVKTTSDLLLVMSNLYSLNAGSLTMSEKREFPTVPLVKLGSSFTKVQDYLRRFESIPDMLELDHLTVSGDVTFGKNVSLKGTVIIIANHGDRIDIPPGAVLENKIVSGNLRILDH

[2] = molecular target: T1, UGP2-FLAG (human); test: co-IP; HA-p53 and UGP2-FLAG overexpressed in HepG2 p53KO cells, 24 h growth medium, precipitated with FLAG beads; Co-IP buffer 25 mM Tris-HCl, 150 mM NaCl, 1 mM EDTA, 1% IGEPAL, 5% glycerol, pH 7.4

HA-p53 (from UniProt P04637 1-393)
binding [1]: binds | binding [2]: no binding (condition: cells in growth medium)
